Two molecules from paper PMC12664368 can be followed below.

The target of experiment [1] is T1, tumour necrosis factor receptor-associated protein 1 (TRAP1) (mouse (endogenous in Panc02)) (UniProt Q9CQN1).
T1 sequence: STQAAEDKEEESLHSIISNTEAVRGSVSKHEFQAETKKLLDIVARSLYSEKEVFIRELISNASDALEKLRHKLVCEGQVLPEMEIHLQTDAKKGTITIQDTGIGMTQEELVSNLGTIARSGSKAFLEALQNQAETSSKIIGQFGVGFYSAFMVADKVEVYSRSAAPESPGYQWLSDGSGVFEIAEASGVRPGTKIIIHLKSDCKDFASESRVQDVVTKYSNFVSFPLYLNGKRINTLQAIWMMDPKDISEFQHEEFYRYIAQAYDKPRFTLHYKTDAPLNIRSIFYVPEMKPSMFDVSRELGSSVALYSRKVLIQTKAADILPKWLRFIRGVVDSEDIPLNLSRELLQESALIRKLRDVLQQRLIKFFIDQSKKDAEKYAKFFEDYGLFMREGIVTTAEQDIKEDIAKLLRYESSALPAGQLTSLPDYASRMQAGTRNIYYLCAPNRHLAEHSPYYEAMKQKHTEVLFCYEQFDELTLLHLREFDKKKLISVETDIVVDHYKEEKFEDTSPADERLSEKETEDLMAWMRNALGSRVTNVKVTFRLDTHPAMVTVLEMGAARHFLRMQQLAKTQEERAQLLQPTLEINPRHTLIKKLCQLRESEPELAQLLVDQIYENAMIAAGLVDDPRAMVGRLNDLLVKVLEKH
Kind of experiment: co-IP; antibodies against ABTB2 and TRAP1, each protein in turn bait or prey, followed by western blotting.

Experiment [2] deals with ankyrin repeat and BTB domain-containing protein 2 (ABTB2) (UniProt Q7TQI7). The description is as above.

These are yes or no findings as the source states them, for the method shown. In cells and extracts the contact can be indirect. Some entries that bind do so weakly or less than the wild type.

For the molecule “ankyrin repeat and BTB domain-containing protein 2 (ABTB2) (from UniProt Q7TQI7 1-1024)”, the binding result in experiment [1] is listed as “binds”.

B1: tumour necrosis factor receptor-associated protein 1 (TRAP1) (protein, UniProt Q9CQN1 61-706)
chain: STQAAEDKEEESLHSIISNTEAVRGSVSKHEFQAETKKLLDIVARSLYSEKEVFIRELISNASDALEKLRHKLVCEGQVLPEMEIHLQTDAKKGTITIQDTGIGMTQEELVSNLGTIARSGSKAFLEALQNQAETSSKIIGQFGVGFYSAFMVADKVEVYSRSAAPESPGYQWLSDGSGVFEIAEASGVRPGTKIIIHLKSDCKDFASESRVQDVVTKYSNFVSFPLYLNGKRINTLQAIWMMDPKDISEFQHEEFYRYIAQAYDKPRFTLHYKTDAPLNIRSIFYVPEMKPSMFDVSRELGSSVALYSRKVLIQTKAADILPKWLRFIRGVVDSEDIPLNLSRELLQESALIRKLRDVLQQRLIKFFIDQSKKDAEKYAKFFEDYGLFMREGIVTTAEQDIKEDIAKLLRYESSALPAGQLTSLPDYASRMQAGTRNIYYLCAPNRHLAEHSPYYEAMKQKHTEVLFCYEQFDELTLLHLREFDKKKLISVETDIVVDHYKEEKFEDTSPADERLSEKETEDLMAWMRNALGSRVTNVKVTFRLDTHPAMVTVLEMGAARHFLRMQQLAKTQEERAQLLQPTLEINPRHTLIKKLCQLRESEPELAQLLVDQIYENAMIAAGLVDDPRAMVGRLNDLLVKVLEKH
In the case of B1, in experiment [2], the binding result is “binds”.
